Assay results taken from PubChem BioAssay AID330 (DTP/NCI, 2004).
The list shows only some results of the screen, not a fair sample: it is rich in T/C values a quarter to a half above the control, in often repeated tests (any T/C) and in doses without a T/C. Other doses and runs of a compound stand elsewhere. T/C: endpoint of the treated group in % of that of the vehicle group. Some doses have a count of surviving animals in place of a T/C: the source files T/C as zero there, which appears to mark a toxic dose or a test without result, not a measured value. Some doses without a T/C left all or most animals alive at the check, yet need not have been tolerated: the source hardly ever lists a survival T/C far under the control, and the zero likely stands for such cases as well. Survivors were counted at the toxicity check, usually on the fifth day, unless a day is given; later deaths do not show. Schedule codes are those of the source, read here as Q, the interval in days (D) or hours (H), X, the number of doses. Some doses were run more than once; their values stand side by side, smallest first. For survival time, the PubChem record calls one and a half times the control and up active, and a quarter to a half above the control has no call in these data; cut-offs in other NCI protocols can differ.

Tested on: P388 leukemia ip, CD2F1 mice, survival T/C
Experiment: NCI In Vivo Anticancer Drug Screen. Data for tumor model P388 Leukemia (intraperitoneal) in CD2F1 (CDF1) mice
Settings: T/C endpoint: median survival time, higher T/C = longer survival
[1] = dose: 100.0 mg/kg/injection, schedule: Q01DX005 (ip), vehicle: Klucel (hydroxypropylcellulose) (HPC)
[2] = dose: 200.0 mg/kg/injection, schedule: Q01DX005 (ip), vehicle: Klucel (hydroxypropylcellulose) (HPC)
[3] = dose: 200.0 mg/kg/injection, schedule: Q01DX009 (ip), vehicle: saline with Tween-80
[4] = dose: 6.25 mg/kg/injection, schedule: Q01DX005 (ip), vehicle: saline
[5] = dose: 50.0 mg/kg/injection, schedule: Q01DX005 (ip), vehicle: saline
[6] = dose: 100.0 mg/kg/injection, schedule: Q01DX005 (ip), vehicle: saline
[7] = dose: 200.0 mg/kg/injection, schedule: Q01DX005 (ip), vehicle: saline
[8] = dose: 100.0 mg/kg/injection, schedule: Q01DX005 (ip), vehicle: saline with Tween-80
[9] = dose: 200.0 mg/kg/injection, schedule: Q01DX005 (ip), vehicle: saline with Tween-80
[10] = dose: 50.0 mg/kg/injection, schedule: Q01DX009 (ip), vehicle: saline with Tween-80
[11] = dose: 100.0 mg/kg/injection, schedule: Q01DX009 (ip), vehicle: saline with Tween-80
[12] = dose: 400.0 mg/kg/injection, schedule: Q04DX003 (ip), vehicle: saline
[13] = dose: 100.0 mg/kg/injection, schedule: Q04DX003 (ip), vehicle: Klucel (hydroxypropylcellulose) (HPC)
[14] = dose: 400.0 mg/kg/injection, schedule: Q04DX003 (ip), vehicle: Klucel (hydroxypropylcellulose) (HPC)
[15] = dose: 6.25 mg/kg/injection, schedule: Q01DX009 (ip), vehicle: saline with Tween-80

COc1cc2c(c(OC)c1OC)-c1ccc(SC)c(=O)cc1C(N(C)C(=O)C(F)(F)F)CC2 (stereo not given)
T/C (dose: 5.0 mg/kg/injection, schedule: Q01DX009 (ip), vehicle: Klucel (hydroxypropylcellulose) (HPC)): 126 and 139 % of control
T/C (dose: 10.0 mg/kg/injection, schedule: Q01DX009 (ip), vehicle: Klucel (hydroxypropylcellulose) (HPC)): 135 and 145 % of control
survivor count (dose: 40.0 mg/kg/injection, schedule: Q01DX009 (ip), vehicle: Klucel (hydroxypropylcellulose) (HPC)): 4 of 6

c1ccc2c(c1)[nH]c1cc3ccncc3cc12
survivor count (dose: 400.0 mg/kg/injection, schedule: Q04DX003 (ip), vehicle: saline with Tween-80): 5 of 5

CCOC(=O)NN(C(=O)OCC)C(C(C)=O)C(C)=NCCN=C(C)C(C(C)=O)N(NC(=O)OCC)C(=O)OCC.[Cu] (stereo not given)
survivor count [1]: 0 of 5
survivor count [2]: 0 of 5

O=C1Nc2ccccc2/C1=N/N=C/c1ccccc1O
survivor count (dose: 200.0 mg/kg/injection, schedule: Q01DX009 (ip), vehicle: Klucel (hydroxypropylcellulose) (HPC)): 3 of 6

CN(C)C1C(O)C2Oc3c(cc(O)c4c3C(=O)c3cc5c(c(O)c3C4=O)C(N)CC(C)(O)C5)C(C)(O2)C1O (stereo not given)
T/C (dose: 10.0 mg/kg/injection, schedule: Q01DX009 (ip), vehicle: other): 134 % of control
T/C (dose: 20.0 mg/kg/injection, schedule: Q01DX009 (ip), vehicle: other): 139 % of control
T/C (dose: 40.0 mg/kg/injection, schedule: Q01DX009 (ip), vehicle: other): 148 % of control
survivor count (dose: 80.0 mg/kg/injection, schedule: Q01DX009 (ip), vehicle: other): 0 of 6

CCCCCCCCCCCCCCCCCCCCN1CCOCC1
survivor count [3]: 4 of 6

CCN=C(c1ccc(NC(=O)c2ccc(C(=O)Nc3ccc(C(=NCC)N(CC)CC)cc3)c(Cl)c2)cc1)N(CC)CC
survivor count (dose: 0.78 mg/kg/injection, schedule: Q01DX005 (ip), vehicle: saline): 0 of 6
survivor count (dose: 1.56 mg/kg/injection, schedule: Q01DX005 (ip), vehicle: saline): 0 of 6
survivor count (dose: 3.12 mg/kg/injection, schedule: Q01DX005 (ip), vehicle: saline): 0 of 6
survivor count [4]: 0 of 6
survivor count (dose: 12.5 mg/kg/injection, schedule: Q01DX005 (ip), vehicle: saline): 0 of 6
survivor count (dose: 25.0 mg/kg/injection, schedule: Q01DX005 (ip), vehicle: saline): 0 of 6
survivor count [5]: 0 of 6
survivor count [6]: 0 of 6
survivor count [7]: 0 of 6

CC(=O)NC(CC(C)C)C(=O)NC(CC(C)C)C(=O)NC(C=O)CCCN=C(N)N (stereo not given)
survivor count (dose: 400.0 mg/kg/injection, schedule: Q01DX001 (ip), vehicle: saline): 0 of 6

N#CCc1ccccc1C#N
survivor count (dose: 50.0 mg/kg/injection, schedule: Q01DX005 (ip), vehicle: saline with Tween-80): 3 of 5
survivor count [8]: 0 of 5
survivor count [9]: 0 of 5

CN(N=O)c1ccc(/C=C/c2ccnc3ccccc23)cc1
survivor count (dose: 300.0 mg/kg/injection, schedule: Q01DX009 (ip), vehicle: saline with Tween-80): 6 of 6

COC(=O)NC(=O)CCC(=O)O
survivor count (dose: 100.0 mg/kg/injection, schedule: Q01DX009 (ip), vehicle: saline): 5 of 6
survivor count (dose: 200.0 mg/kg/injection, schedule: Q01DX009 (ip), vehicle: saline): 5 of 6

O=P(Oc1ccccc1)(Oc1ccccc1)C(O)C(Cl)(Cl)Cl (stereo not given)
survivor count [10]: 6 of 6
survivor count [3]: 0 of 6

Cc1c(-c2ccccc2)ccnc1/C=N/NC(=S)NCCc1ccccn1
T/C [10]: 138 % of control
survivor count [11]: 6 of 6
survivor count [3]: 4 of 6

Nc1c(C(=O)O)ccc2c1C(=O)c1ccccc1C2=O
survivor count [8]: 0 of 5
survivor count [9]: 0 of 5

N#CC1CC=CCN1CCc1ccccc1 (stereo not given)
survivor count (dose: 100.0 mg/kg/injection, schedule: Q01DX005 (ip), vehicle: saline + Tween-80 + alcohol): 0 of 5
survivor count (dose: 200.0 mg/kg/injection, schedule: Q01DX005 (ip), vehicle: saline + Tween-80 + alcohol): 0 of 5

Cc1cc(SSc2cc(C)nc(N)n2)nc(N)n1
survivor count (dose: 400.0 mg/kg/injection, schedule: Q01DX001 (ip), vehicle: saline with Tween-80): 3 of 6

CCOC(=O)Cc1cc2cc(=O)[nH]cc2cc1C
survivor count (dose: 100.0 mg/kg/injection, schedule: Q01DX009 (ip), vehicle: distilled water + Tween-80): 6 of 6

CC(c1ccccc1)n1ccnc1CC#N (stereo not given)
survivor count (dose: 120.0 mg/kg/injection, schedule: Q01DX005 (ip), vehicle: saline): 0 of 6
survivor count (dose: 240.0 mg/kg/injection, schedule: Q01DX005 (ip), vehicle: saline): 0 of 6

CN1CCC(O)(c2ccc(Br)cc2)C(C(=O)c2ccc(Br)cc2)C1 (stereo not given)
survivor count [1]: 6 of 6
survivor count [2]: 6 of 6

O=S1(=O)CS(=O)(=O)OCCCCO1
T/C [4]: 142 % of control
survivor count [5]: 5 of 5 and 6 of 6
survivor count [6]: 2 of 5
survivor count [7]: 0 of 5

C1=Nc2ccccc2OCCOc2ccccc2N=Cc2ccccc2NCCNc2ccccc21
T/C [12]: 133 % of control

Cc1ncc(N)c2c1OC(C)(C)OC2
survivor count [8]: 0 of 6
survivor count [9]: 0 of 6

O=C1CCCC2=C1C(c1ccccc1)/C(=N/O)O2 (stereo not given)
survivor count [13]: 6 of 6
survivor count [14]: 6 of 6

CCOC(/C=C/c1ccccc1)OCC
T/C [12]: 127 % of control

CCCCCC(C)[P+](c1ccccc1)(c1ccccc1)c1ccccc1 (stereo not given)
T/C (dose: 1.56 mg/kg/injection, schedule: Q01DX009 (ip), vehicle: saline with Tween-80): 125 and 127 % of control
T/C (dose: 3.13 mg/kg/injection, schedule: Q01DX009 (ip), vehicle: saline with Tween-80): 127 and 140 % of control
T/C [15]: 133 % of control
survivor count [15]: 4 of 6
survivor count (dose: 12.5 mg/kg/injection, schedule: Q01DX009 (ip), vehicle: saline with Tween-80): 3 of 6
survivor count (dose: 25.0 mg/kg/injection, schedule: Q01DX009 (ip), vehicle: saline with Tween-80): 1 of 6
survivor count [10]: 0 of 6
survivor count [11]: 0 of 6
survivor count [3]: 0 of 6

CCOc1c(N=Nc2ccc(Cl)cc2)c(C)nn1C(=S)SC
survivor count (dose: 30.0 mg/kg/injection, schedule: Q01DX005 (ip), vehicle: Klucel + Tween-80): 6 of 6
survivor count (dose: 60.0 mg/kg/injection, schedule: Q01DX005 (ip), vehicle: Klucel + Tween-80): 6 of 6
survivor count (dose: 120.0 mg/kg/injection, schedule: Q01DX005 (ip), vehicle: Klucel + Tween-80): 0 of 6
survivor count (dose: 240.0 mg/kg/injection, schedule: Q01DX005 (ip), vehicle: Klucel + Tween-80): 0 of 6

N#CC1(C#N)C(C#N)(C#N)C12CCCCCC2
survivor count (dose: 50.0 mg/kg/injection, schedule: Q04DX003 (ip), vehicle: Klucel (hydroxypropylcellulose) (HPC)): 4 of 6
survivor count [13]: 1 of 6
survivor count (dose: 200.0 mg/kg/injection, schedule: Q04DX003 (ip), vehicle: Klucel (hydroxypropylcellulose) (HPC)): 0 of 6
survivor count [14]: 0 of 6
